This is an account of results in PubChem BioAssay AID493036 (Sanford-Burnham Center for Chemical Genomics, 2011).

This is one part of the list. Some structures show a salt or complex split into parts, the way the source records it.

A short description of the assay: NTR1-driven beta-arrestin-GFP spot formation – imaging, U2OS cells, high content, primary screen (AID 493036) (AID 493036). To be noted: agonist mode, measured here: cell count, cytotoxicity flag, at 20 µM.
As to `CN(C(=O)Cc1ccc(Cl)c(Cl)c1)[C@H]1CCCC[C@@H]1N1CCCC1`, the cell count amounted to 65 cells.

As to `COc1ccccc1OP(C)(=O)Nc1ccc(C)c(C)c1` (centres undefined), the cell count was 38 cells.

In turn, `CCOP(=O)(Nc1ccccc1)OCC` came in with a cell count of 45 cells.

For the compound `Cc1cc(SC(NC(=O)c2ccc(F)cc2)C(Cl)(Cl)Cl)ncn1` (centres undefined), the cell count stood at 55 cells.

On to `Cc1cc(C)cc(OP(C)(=O)Nc2cccc(C(F)(F)F)c2)c1` (centres undefined), for which the cell count turned out to be 59 cells.

As for `O=P(Nc1nc2ccc(Cl)cc2s1)(c1ccccc1)c1ccccc1`, the cell count is 57 cells.

Turning to `O=C(O)c1ccccc1[As](=O)(O)O`, the cell count was 51 cells.

As for `CC(=O)Nc1ccc([As](=O)(O)O)cc1`, the cell count was 77 cells.

In turn, `CP(=O)(OCCOc1ccccc1)OCCOc1ccccc1` showed a cell count of 51 cells.

Regarding `CP(=O)(Nc1ccc(Cl)cc1Cl)Oc1ccccc1` (centres undefined), the cell count was 55 cells.

As to `CCN(N=Nc1nonc1N)c1nonc1N`, the cell count came to 29 cells.

For the compound `O=[N+]([O-])c1cc([N+](=O)[O-])c(CCN2CCOCC2)c([N+](=O)[O-])c1`, the cell count came to 55 cells.

`Cc1nc2ccc3ccccc3c2o1.O=[N+]([O-])c1cc([N+](=O)[O-])c(O)c([N+](=O)[O-])c1` came in with a cell count of 71 cells.

Consider `Clc1ccc(Cl)c(NC2=NCC(CBr)S2)c1` (centres undefined), for which the cell count was found to be 23 cells.

`CN(C)CCOC(=O)C(O)(c1ccccc1)C1CCCC1` (centres undefined) yielded a cell count of 52 cells.

Turning to `CN1CCCC(OC(=O)C(c2ccccc2)c2ccccc2)C1` (centres undefined), the cell count worked out at 44 cells.

On to `Cc1ccc(OP(=O)(Nc2nccs2)Oc2ccc(C)cc2)cc1`, for which the cell count was found to be 77 cells.

`COc1ccc(OP(C)(=O)Nc2ccccn2)cc1` (centres undefined) yielded a cell count of 55 cells.

In turn, `COc1ccccc1OP(=O)(Nc1ccc(C)cn1)Oc1ccccc1OC` yielded a cell count of 23 cells.

In the case of `Cc1ccc(N/C(=N/P(=O)(N2CCOCC2)N2CCOCC2)N2CCOCC2)cc1`, the cell count is 28 cells.

Consider `COc1ccccc1OP(C)(=O)Nc1ccc(Br)cc1` (centres undefined), for which the cell count stood at 60 cells.

Consider `CN(C(=O)Cc1ccc(Cl)c(Cl)c1)[C@H]1CCCC[C@H]1N1CCCC1`, for which the cell count was 45 cells.

Take `NC(=O)c1cc([N+](=O)[O-])cc([N+](=O)[O-])c1N`: the cell count amounted to 20 cells.

In turn, `CCc1ccc(OP(C)(=O)O)cc1` showed a cell count of 27 cells.

`COc1ccccc1OP(C)(=O)Nc1ccc(C)cc1C` (centres undefined) had a cell count of 91 cells.

Regarding `CP(=O)(Nc1ccccn1)Oc1ccccc1` (centres undefined), the cell count is 54 cells.

`Cc1c2non([O-])c-2c(C)[n+](=O)[n+]1[O-]` had a cell count of 84 cells.

`O=C(NC(Sc1ccncn1)C(Cl)(Cl)Cl)c1ccccc1` (centres undefined) had a cell count of 53 cells.

Compound `Oc1ccccc1CNc1ccccn1` registered a cell count of 55 cells.

The compound `CC(C)CC(=O)NC(Sc1ccc(Cl)cc1)C(Cl)(Cl)Cl` (centres undefined) came in with a cell count of 52 cells.

In the case of `O=[N+]([O-])c1cc([N+](=O)[O-])c(Nc2ccccn2)c([N+](=O)[O-])c1`, the cell count is 51 cells.

In the case of `Cc1c(NP(C)(=O)Oc2ccc(C(C)C)cc2)c(=O)n(-c2ccccc2)n1C` (centres undefined), the cell count turned out to be 83 cells.

`Nc1cc(N)c2nonc2c1[N+](=O)[O-]`: the cell count was found to be 43 cells.

Compound `CC(C)c1ccc(OP(C)(=O)Nc2ccc(SC(F)(F)F)cc2)cc1` (centres undefined) returned a cell count of 52 cells.

`CC(C)(C)C(=O)NC(Sc1ccccc1)C(Cl)(Cl)Cl` (centres undefined) came in with a cell count of 47 cells.

As for `CP(=O)(Nc1ccccc1F)Oc1ccccc1` (centres undefined), the cell count is 35 cells.

`CCOc1ccc(C2=NCC(CBr)S2)cc1` (centres undefined) returned a cell count of 40 cells.

Compound `O=P1(Nc2nc3ccc(Cl)cc3s2)COc2ccccc2O1` (centres undefined) displayed a cell count of 77 cells.

On to `CC(=O)Nc1ccc(Oc2c([N+](=O)[O-])cc([N+](=O)[O-])cc2[N+](=O)[O-])cc1`, for which the cell count came out at 28 cells.

`COc1ccc2c(c1O)-c1c(O)c(OC)cc3c1[C@H](C2)[N+](C)(C)CC3.O=[N+]([O-])c1cc([N+](=O)[O-])c([O-])c([N+](=O)[O-])c1[O-]` displayed a cell count of 80 cells.

For `CC(=O)Nc1ccc([As](=O)(O)O)c(O)c1`, the cell count is 65 cells.

`C[C@@H]1C=CCP(=O)(Oc2ccccc2)O1` (some centres undefined) displayed a cell count of 61 cells.

The compound `C[C@H]1OP(=O)(Oc2ccccc2)C[C@@H]2O[C@@H]21` (some centres undefined) came in with a cell count of 53 cells.

Compound `Cc1ccccc1CN(C)C(=O)COC(=O)C(O)(c1ccccc1)c1ccccc1` gave a cell count of 56 cells.

Compound `O=C(OCCN1CCN(CCOCc2ccccc2)CC1)C(O)(c1ccccc1)c1ccccc1` gave a cell count of 60 cells.

Take `O=C(OC1CN2CCC1CC2)c1ccc([N+](=O)[O-])cc1` (centres undefined): the cell count is 55 cells.

Consider `COc1ccc(OP(C)(=O)Nc2ccc(SC(F)(F)F)cc2)cc1` (centres undefined), for which the cell count amounted to 40 cells.

Regarding `CCOC(=O)c1ccc(NP(C)(=O)Oc2ccc(F)cc2)cc1` (centres undefined), the cell count worked out at 41 cells.

Regarding `Cc1ccc(NP(=O)(Oc2cccc(C)c2)Oc2cccc(C)c2)nc1`, the cell count came to 41 cells.

With `CCOC(=O)NC(Sc1ccccc1)C(Cl)(Cl)Cl` (centres undefined), the cell count came out at 85 cells.

For `c1ccc(-c2nn[nH]n2)c(-c2nn[nH]n2)c1`, the cell count amounted to 101 cells.

In turn, `CCNC(=S)/N=C(\N)N[N+](=O)[O-]` came in with a cell count of 42 cells.

`O=C(NC1CCS(=O)(=O)C1)NP(=S)(Oc1ccccc1)Oc1ccccc1` (centres undefined) displayed a cell count of 59 cells.

`CN(C)C(=O)Oc1noc2ccccc12` registered a cell count of 61 cells.

`CCCCCOc1ccc(NP(C)(=O)Oc2ccc(Cl)cc2Cl)cc1` (centres undefined): the cell count worked out at 39 cells.

Consider `O=[N+]([O-])c1cc([N+](=O)[O-])c(OC2CCCCC2O)c([N+](=O)[O-])c1` (centres undefined), for which the cell count came out at 58 cells.

`Cc1ccccc1OP(=O)(Nc1ccccn1)Oc1ccccc1C` came in with a cell count of 26 cells.

`CC(NC(=O)COC(=O)C(O)(c1ccccc1)c1ccccc1)c1ccccc1` (centres undefined): the cell count was found to be 54 cells.

In turn, `CP(=O)(Nc1ccccc1)Oc1ccc(F)cc1` (centres undefined) yielded a cell count of 40 cells.

In turn, `CCN(CC)CCCOC(=O)C(O)(c1ccccc1)C1CCCCC1` (centres undefined) displayed a cell count of 87 cells.

Compound `CCC(=O)N1C2C3N(C(=O)CC)C1C1N(C(=O)CC)C(C(N1C(=O)CC)N3C(=O)CC)N2C(=O)CC` showed a cell count of 54 cells.

Compound `O=C(OC1CN2CCC1CC2)c1ccccc1` (centres undefined) returned a cell count of 51 cells.

`CC(=O)NC(SC(=S)N(CC(C)C)CC(C)C)C(Cl)(Cl)Cl` (centres undefined) registered a cell count of 61 cells.

As to `Cc1ccc(OP(=O)(Nc2ccccn2)Oc2ccc(C)cc2)cc1`, the cell count came to 41 cells.

As to `COC(=O)c1cc2c(s1)N=C(c1ccccc1)N(C)P2(=O)N1CCOCC1` (centres undefined), the cell count was 45 cells.

Turning to `COc1ccc(NP(C)(=O)Oc2ccccc2OC)cc1` (centres undefined), the cell count worked out at 53 cells.

Take `C[C@H]1OP(=O)(Oc2ccccc2)[C@H](O)[C@H](O)[C@H]1N=[N+]=[N-]` (some centres undefined): the cell count stood at 57 cells.

In turn, `CN(C)CCOC(=O)C(O)(c1ccccc1)C1CCCCC1` (centres undefined) registered a cell count of 48 cells.

As for `O=P(Nc1nc2ccccc2s1)(c1ccccc1)c1ccccc1`, the cell count was 50 cells.

Compound `O=P(Nc1ccccn1)(c1ccc(Br)cc1)c1ccc(Br)cc1` returned a cell count of 32 cells.

In turn, `CN(C)C1(CNC(=O)c2ccc(Cl)c(S(N)(=O)=O)c2)CCCCC1` had a cell count of 43 cells.

Regarding `COc1ccc(OP(C)(=O)Nc2cccc(Br)c2)cc1` (centres undefined), the cell count was found to be 85 cells.

Compound `O=C(OC1CN2CCC1CC2)c1cccc(Cl)c1` (centres undefined) gave a cell count of 65 cells.

Consider `Nc1ccc([As](=O)(O)c2ccc([N+](=O)[O-])cc2)cc1`, for which the cell count amounted to 55 cells.

`C(Cc1nn[nH]n1)Cc1nn[nH]n1`: the cell count worked out at 78 cells.

`O=[N+]([O-])c1cc([N+](=O)[O-])c(NCC2CCS(=O)(=O)C2)c([N+](=O)[O-])c1` (centres undefined) showed a cell count of 87 cells.

`O=[As](O)(c1ccccc1)c1ccc(O)cc1` registered a cell count of 70 cells.

`O=[N+]([O-])c1ncn(CCn2cnc([N+](=O)[O-])n2)n1` displayed a cell count of 57 cells.

With `c1nnnn1CCn1cnnn1`, the cell count is 64 cells.

For the compound `CCOP(C)(=S)SCC(=O)NC(C)(CC)C(=O)O` (centres undefined), the cell count came out at 86 cells.

Take `CC(C)C(=O)NC(Sc1ccccc1)C(Cl)(Cl)Cl` (centres undefined): the cell count stood at 71 cells.

The compound `O=P(Nc1nccs1)(c1ccccc1)c1ccccc1` had a cell count of 29 cells.

Regarding `CP(=O)(Nc1ccc(SC(F)(F)F)cc1)Oc1ccc(F)cc1` (centres undefined), the cell count turned out to be 58 cells.

Turning to `Cc1ccccc1NP(C)(=O)Nc1ccccc1C`, the cell count worked out at 61 cells.

`CP(=O)(Nc1ccc2c(c1)OCCO2)Oc1ccccc1` (centres undefined): the cell count was 50 cells.

`CC(C)(C)C(=O)NC(Sc1ncccn1)C(Cl)(Cl)Cl` (centres undefined) registered a cell count of 62 cells.

Take `Clc1n[nH]nc1-c1nn[nH][15n]1`: the cell count was determined as 76 cells.

Compound `CCOP(=O)(NC(=NC(C)c1ccccc1)NC(C)c1ccccc1)OCC` (centres undefined) had a cell count of 63 cells.

Turning to `O=[N+]([O-])c1cc([N+](=O)[O-])c(-n2nnc3ccccc32)c([N+](=O)[O-])c1`, the cell count came to 30 cells.

`O=P1(Nc2ccccn2)COc2ccccc2OC1` had a cell count of 68 cells.

On to `CCC1=CC2Cc3nc4ccc(Cl)cc4c(N)c3C(C1)C2` (centres undefined), for which the cell count came to 49 cells.

Take `CN(CCCl)Cc1cc(Cl)c(NC2=NCCN2)c(Cl)c1`: the cell count amounted to 59 cells.

`CCOP(=O)(Nc1ccc(C)cn1)OCC`: the cell count is 59 cells.

Compound `CC(C)/C=N\N=C(\N)N[N+](=O)[O-]` gave a cell count of 45 cells.

`CN(C(=O)Cc1ccc(Cl)c(Cl)c1)[C@@H]1CCCC[C@H]1N1CCCC1`: the cell count amounted to 66 cells.

On to `CC1(CBr)Cn2c(nc3ccccc3c2=O)S1` (centres undefined), for which the cell count came out at 31 cells.

In the case of `Cc1nc2ccc3ccccc3c2s1.O=[N+]([O-])c1cc([N+](=O)[O-])c(O)c([N+](=O)[O-])c1`, the cell count turned out to be 44 cells.

`O=[As](O)(c1ccccc1Br)c1ccccc1Br` had a cell count of 80 cells.

`O=[N+]([O-])c1cc([N+](=O)[O-])c(-c2cnn(-c3ccccc3)c2)c([N+](=O)[O-])c1`: the cell count was 50 cells.

In turn, `COc1ccccc1CNC(=O)COC(=O)C(O)(c1ccccc1)c1ccccc1` came in with a cell count of 93 cells.

`CCOC(=O)C(CC)C1=NC(C)(C)Cc2ccccc21.O=[N+]([O-])c1cc([N+](=O)[O-])c(O)c([N+](=O)[O-])c1` (centres undefined) yielded a cell count of 49 cells.

`O=[N+]([O-])c1cc([N+](=O)[O-])c(Nc2nnnn2CCO)c([N+](=O)[O-])c1` registered a cell count of 56 cells.

Consider `CN(C)C1(CNC(=O)c2ccc(S(C)(=O)=O)cc2)CCCCC1`, for which the cell count stood at 67 cells.

The compound `CC1=C2N=C(C=C3N=C(C(C)=C4[N-][C@@](C)([C@@H]5N=C1[C@](C)(CCC(=O)NC[C@@H](C)OP(=O)([O-])O[C@H]1[C@@H](O)[C@@H](n6cnc7cc(C)c(C)cc76)O[C@@H]1CO)[C@H]5CC(N)=O)[C@@](C)(CC(N)=O)[C@@H]4CCC(N)=O)[C@@](C)(CC(N)=O)[C@@H]3CCC(N)=O)C(C)(C)[C@@H]2CCC(N)=O.[C-]#N.[Co+3]` registered a cell count of 65 cells.

Consider `O=C(/C=C/c1ccccc1)OC1CN2CCC1CC2` (centres undefined), for which the cell count stood at 57 cells.

Turning to `CC1CCC(C(C)C)C(OP(=O)(Nc2ccccn2)c2ccccc2)C1` (centres undefined), the cell count turned out to be 34 cells.

In turn, `Cc1ccc(C(=O)OC2CN3CCC2CC3)cc1` (centres undefined) showed a cell count of 87 cells.

The compound `Cc1nn(-c2ccccc2)c2c1P(=O)(N1CCOCC1)N(C)C(c1ccccc1)=N2` (centres undefined) returned a cell count of 58 cells.

`COc1cc(C2NCCC3(OCCO3)C2(C)C)cc(OC)c1OC.O=[N+]([O-])c1cc([N+](=O)[O-])c(O)c([N+](=O)[O-])c1` (centres undefined) yielded a cell count of 68 cells.
